PubChem BioAssay AID652259 – Drosophila RNAi Screening Center – 2013
The screen tested about 22,000 reagents; below is an unselected part of those that have a named target and a result. In the full data, 233 (1.1%) were called active. 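Light values are raw, unnormalised plate reads; the ratio scores behind the reporter calls were not deposited.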 A number with no mark means an inactive call. Not stated in the record: the amount of reagent, the time to read-out, the dose of the treatment.

- Screen: 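Identify new Wingless signalling regulators in fly cells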 (primary screen)
- Cells: Drosophila clone 8 imaginal disc epithelial cells
- Reagents: long dsRNA against Drosophila genes
- Challenge: pathway stimulated by co-transfected Wingless expression plasmid
- Measured: 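Firefly luciferase from a tcf-site Wingless reporter, measured alongside co-transfected Renilla luciferase that tracks transfection; pathway stimulated by a Wingless plasmid; the firefly-to-Renilla ratio is not deposited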
- Scale: firefly reporter light: higher = more Wg reporter light, before normalisation; Renilla control light: higher = more transfected or surviving cells
- Active means: 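a knock-down is a candidate when at least two out of four statistical tests show it departing from its plate mean; one test alone signals a weak candidate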
- Meaning of the calls: active = candidate regulator (raises or lowers reporter); inactive = not a candidate

Gene | DRSC id | reporter change call, replicate 1 | firefly reporter light, replicate 1 | firefly reporter light, replicate 2 | Renilla control light, replicate 1 | Renilla control light, replicate 2
AlaRS | DRSC01851 | – | 8451 | – | 4587 | –
Grip71 | DRSC02042 | – | 2325 | 7684 | 252 | 3254
CG4768 | DRSC19917 | – | 3699 | 9016 | 1363 | 2752
Caf1-180 | DRSC17807 | – | 6699 | 7542 | 1131 | 1560
mRpS11 | DRSC15732 | – | 15299 | – | 3322 | –
CG15649 | DRSC04240 | – | 2868 | 11979 | 873 | 3482
Usp16-45 | DRSC18352 | – | 3421 | 7525 | 739 | 2242
Oseg4 | DRSC08548 | – | 12744 | – | 3504 | –
CG13071 | DRSC09954 | – | 5913 | – | 3238 | –
CG13972 | DRSC14715 | – | 7216 | – | 3029 | –
sdk | DRSC18831 | – | 1958 | 4917 | 949 | 1076
Snp | DRSC04524 | – | 2578 | 5605 | 659 | 2344
Snp | DRSC21538 | – | 5.05e5 | 4.22e5 | 2.52e5 | 2.06e5
x16 | DRSC00960 | – | 19617 | – | 8018 | –
x16 | DRSC03638 | – | 14052 | – | 4949 | –
Mst77F | DRSC11871 | – | 15683 | – | 5970 | –
CG14777 | DRSC18563 | – | 23504 | – | 21232 | –
CG34302 | DRSC12751 | – | 2115 | – | 1056 | –
Trmt112 | DRSC11685 | – | 28336 | – | 6773 | –
Art4 | DRSC15779 | – | 13657 | – | 3627 | –
CG30222 | DRSC04125 | – | 2648 | 5299 | 1085 | 2240
CG30222 | DRSC04262 | – | 3824 | 8708 | 1384 | 4209
gammaSnap2 | DRSC15992 | – | 16621 | – | 4240 | –
CG30158 | DRSC04956 | – | 22835 | – | 11722 | –
CG30158 | DRSC04974 | – | 3382 | 7480 | 1016 | 3219
CG30158 | DRSC04975 | – | 2709 | 8384 | 837 | 3123
CG30158 | DRSC05012 | – | 4103 | 9557 | 1190 | 3513
CG3309 | DRSC18301 | – | 9719 | – | 7380 | –
GlyRS | DRSC10711 | – | 3008 | – | 1383 | –
Csl4 | DRSC02944 | – | 4720 | 9988 | 1376 | 5265
Csl4 | DRSC22664 | – | 3.95e5 | 4.13e5 | 1.92e5 | 1.64e5
Tnpo | DRSC11309 | – | 5584 | – | 1367 | –
conu | DRSC07810 | – | 3730 | – | 730 | –
Aprt | DRSC08139 | – | 5632 | – | 2131 | –
Ent1 | DRSC00330 | – | 13225 | – | 4838 | –
CG12259 | DRSC14486 | – | 2826 | – | 1651 | –
CG34175 | DRSC00424 | – | 6357 | 13417 | 1651 | 4230
CG34249 (retired record) | DRSC09431 | – | 1654 | – | 1030 | –
CG14107 | DRSC10110 | Wg reporter activity lowered (active) | 1648 | – | 2326 | –
Grx1 | DRSC10727 | – | 10216 | – | 3794 | –
e(y)3 | DRSC19450 | – | 1416 | 4432 | 1063 | 2515
robls54B | DRSC05660 | – | 18864 | – | 13155 | –
mthl5 | DRSC16155 | – | 14744 | – | 3594 | –
sicily | DRSC19704 | – | 13626 | – | 8336 | –
Cisd2 | DRSC14904 | – | 9632 | – | 3876 | –
CG43138 | DRSC17527 | – | 3217 | – | 1537 | –
cno | DRSC12054 | – | 1872 | – | 1228 | –
cno | DRSC12374 | – | 7010 | – | 402 | –
CG13634 | DRSC14635 | – | 21947 | – | 13664 | –
CG6310 | DRSC10619 | – | 7836 | – | 3078 | –
CG34278 | DRSC13208 | – | 3424 | – | 1456 | –
CG8607 | DRSC11012 | – | 857 | 7072 | 552 | 3127
CG5292 | DRSC15763 | – | 10931 | – | 3851 | –
Stt3A | DRSC20514 | – | 2551 | 5495 | 866 | 2688
Dhc1 | DRSC12748 | – | 4461 | – | 2224 | –
Dhc1 | DRSC16503 | – | 12026 | – | 2921 | –
Cyp4d21 | DRSC03305 | – | 7613 | – | 3314 | –
CG17075 | DRSC00483 | – | 8900 | – | 3285 | –
CG6836 | DRSC10722 | – | 5792 | – | 2471 | –
CG41520 | DRSC21103 | – | 15847 | – | 8772 | –
CG4957 | DRSC02793 | – | 3088 | 9016 | 1004 | 3872
Xpc | DRSC07654 | – | 8176 | – | 1296 | –
Zmynd8 | DRSC15310 | – | 1579 | 7080 | 672 | 1964
CG8379 | DRSC16414 | – | 13632 | – | 4994 | –
tra | DRSC11405 | – | 7814 | – | 3098 | –
wge | DRSC15246 | – | 3353 | 6269 | 1954 | 2055
wge | DRSC15672 | – | 16140 | – | 14471 | –
Cdk5 | DRSC07359 | – | 9452 | – | 3702 | –
bys | DRSC18748 | – | 2457 | 6001 | 1049 | 2544
comm3 | DRSC09993 | – | 10186 | – | 3469 | –
comm3 | DRSC09994 | – | 6944 | – | 2736 | –
comm3 | DRSC09995 | – | 7958 | – | 3186 | –
CG5327 | DRSC06930 | – | 5658 | – | 2219 | –
nod | DRSC18900 | – | 3348 | – | 884 | –
nod | DRSC20356 | – | 1984 | 4096 | 922 | 1980
CenB1A | DRSC16923 | – | 27223 | 7.49e5 | 26547 | 3.52e5
stl | DRSC04396 | – | 6092 | – | 2205 | –
CG9826 | DRSC04570 | – | 4631 | 5609 | 1269 | 2747
Atg2 | DRSC08273 | – | 15413 | – | 4936 | –
Mal-A3 | DRSC07462 | – | 2263 | 5336 | 657 | 1744
mahj | DRSC04053 | – | 5204 | – | 2171 | –
CG33234 | DRSC07994 | – | 3083 | – | 1719 | –
Awh | DRSC08140 | – | 5996 | – | 3548 | –
sty | DRSC08737 | – | 11217 | – | 5008 | –
CG10747 | DRSC02104 | – | 2250 | 8320 | 736 | 2583
sol | DRSC20587 | – | 12488 | – | 7748 | –
Ugt316A1 | DRSC10376 | – | 14368 | – | 4532 | –
Tsf3 | DRSC06849 | – | 12424 | – | 3210 | –
alpha-Est3 | DRSC12615 | – | 4953 | – | 1398 | –
Or43b | DRSC07486 | – | 2632 | 6688 | 793 | 2085
CG15429 | DRSC00444 | – | 1996 | 7252 | 989 | 2340
Brms1 | DRSC19896 | – | 17952 | – | 10960 | –
Membrin | DRSC10448 | – | 1408 | 5754 | 1616 | 3184
